Data: paper PMC5561080, “The Gαi-GIV binding interface is a druggable protein-protein interaction” (Scientific Reports, 2017)
No constants are given. Whether binding was seen depends on the method and setting. For some assays here: Binding seen in cells or lysates may run through a third protein. Some entries that bind do so weakly or less than the wild type. For some assays here: Tags and fused reporters may be left off the sequences shown.

Chains of the proteins cited; added tags and fusions are not shown.
UniProt P08753: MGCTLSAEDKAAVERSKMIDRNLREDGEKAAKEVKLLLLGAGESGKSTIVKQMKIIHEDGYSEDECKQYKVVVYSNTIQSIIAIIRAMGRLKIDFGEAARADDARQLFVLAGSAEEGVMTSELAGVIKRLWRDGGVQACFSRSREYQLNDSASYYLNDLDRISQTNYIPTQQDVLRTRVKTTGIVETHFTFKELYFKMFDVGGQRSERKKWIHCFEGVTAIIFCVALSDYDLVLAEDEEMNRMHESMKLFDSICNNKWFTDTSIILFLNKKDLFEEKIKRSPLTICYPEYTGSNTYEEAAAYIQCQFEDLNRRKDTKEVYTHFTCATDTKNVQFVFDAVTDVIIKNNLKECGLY

Assays:
Gαi3-FLAG = Gαi3-FLAG (UniProt P08753); assay: co-IP; lysates of HEK293T cells transfected with Gαi3-FLAG and full-length GIV; anti-FLAG IgG and protein G agarose, 4 °C; NF023 0–100 µM added to the lysates; immunoblots for FLAG, GIV and pan-Gβ
[1] = biological target: T1, human His-GIV-CT (1660–1870) (human, UniProt Q3V6T2-3 1660-1870); assay: condition: only with GDP + AlF4− (30 µM AlCl3, 10 mM NaF); AlphaScreen or HTRF; 75 nM His-GIV-CT and 75 nM GST-Gαi3 on beads in buffer with GDP + AlF4− (30 µM AlCl3, 10 mM NaF); both purified
T1 construct: also called His-tagged GIV 1660–1870; source: E. coli BL21(DE3), purified (HisPur Cobalt resin, dialysed against PBS)
T1 sequence (looked up): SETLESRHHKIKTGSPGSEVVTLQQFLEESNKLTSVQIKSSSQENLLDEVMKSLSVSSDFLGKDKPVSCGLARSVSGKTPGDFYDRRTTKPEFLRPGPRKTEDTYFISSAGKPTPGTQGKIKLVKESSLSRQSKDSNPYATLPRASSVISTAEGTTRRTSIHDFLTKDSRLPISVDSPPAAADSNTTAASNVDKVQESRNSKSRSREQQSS

Row | binding (Gαi3-FLAG) | binding [1] | Substance
1 | binds | – | full-length GIV (from UniProt Q3V6T2-3 1-1870)
2 | – | no binding | rat GST-Gαi3 (from UniProt P08753 1-354)
